The target in this experiment is SSNA-1, the Caenorhabditis elegans ortholog of Sjogren's Syndrome Nuclear Antigen 1 (C. elegans) (UniProt Q95X71). The experiment can be described thus: co-sedimentation; purified proteins; SSNA-1 filaments (10 μM) or GMPCPP microtubules (10 μM) incubated 10 min at room temperature with ZYG-1 or BSA (1.25 μM), 30 μL; 80,000 rpm (278,088 x g), TLA-120.2, 10 min, 25°C; soluble and pellet fractions by SDS-PAGE and immunoblotting; in triplicate; both purified.

Sequences of proteins named here, by UniProt entry; tags and fusion partners are left off. A change or cut given only in a name is not applied to a line headed by its entry.
UniProt Q95X71: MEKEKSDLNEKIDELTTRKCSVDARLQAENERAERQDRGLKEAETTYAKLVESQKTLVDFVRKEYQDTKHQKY

Results are given in words; binding and its absence hold for the method and conditions named. Binding calls can cover weak binding; strength is not graded here.

B1: ZYG-1 (enzyme, UniProt Q9GT24 1-706)
chain: MSGGKSGSRLSAYSHLKEIGKGGFGVVYAAQRENGEKVAIKRIDKKVPKNRVWTEIQTMKELKKSKYVVEFYEDFVEDGYTYIVMELCEGGSLQAYVREHGALDDATAVHVLRQLISAVSFMHRVNVIHRDLSAGNVFIKDSKKKKMTVKLGDFGLATTLGRGETTCTIVGTPGFIAPQVYDQEYTQSADVYSLGAVLYTMLTARNPPPKGLPPTCGMSPNAARLVEQMMDTDAKKRIPLTQIVLSEFMYENTNENAVIFSREHSRDGRRQRSREPVRSSRDDRSRDGRALIRSSSQPAHSGRAPLSNRPIHDRMPSTSSRGFDSERGRERDRDSGRGTVPPSREDRNRSQLWPIRMDRLEGQRVCTAGGRYIVELDTRCRFEVAAQGNFVKRILIVEVDEMVQTVYVHRIPDRTVRGRNGEEELITLTNNPFVYTSYSQMPKEVQNDYMRLQKMVAVTISGRVAKVTFRRPSQFPDAQAQLMENGDLRIKLPRSVIVRKMDNGEIFNCIDGIATQKQAVSGITLTKVNEVYKYLIRFEQCLNGMDRGMVCFPIVFSAGTNMVGSSPSSLMPSGSSQTSRFPFSNLSNNQPSLVPHSAPFLTKPTSSQRASSANVQRRVSTDENSSPSVAPSKYKIKIDPTTQKVRSIQATDGRVLRCSTSKADQFIFTDPAIRPDDQRFMRTDRVPDRASEMLHTLCERMRKLHQ
In the case of B1, the binding result is listed as “binds”.

The values above are taken from PMC11722412.
